The name of at least one read-out is uncertain.
Columns and labels:
Chd2 locus [1] = experiment: Chd2^R1684H knock-in by pronuclear injection of Cas9/crRNA/tracrRNA and ssODN, genotyping of cultured embryos; format: cell-based, mouse; conditions: with vs without RAD51, 30 ng/μL ssODN, embryos cultured two days
Protocol: tracrRNA, crRNAs, and ssODNs were synthesized by Integrated DNA Technologies (TABLE 1). All injection mixtures were prepared in a final volume of 50 μL according to the following methodology: Using RNase-free water, reagents, and consumables, crRNA (final concentration 0.61 μM), tracrRNA (final concentration 0.61 μM), and ultrapure Tris-HCl, pH 7.39 (final concentration 10 mM, ThermoFisher) were mixed and incubated at 95° C. for 5 minutes. The mixtures were cooled to room temperature for 10 minutes on the benchtop, and then, EnGen Cas9-NLS S. pyogenes (New England Biolabs) was added to a final concentration of 30 ng/μL. The mixtures were incubated at 37° C. for 15 minutes before adding any remaining components: ssODN (final concentration 3 ng/μL or 30 ng/μL), RAD51 (Creative Biomart, final concentration 10 ng/μL). Injection mixtures were stored on ice and briefly heated to 37° C. prior to injection. For experiments utilizing RS-1, embryos were cultured in KSOM-AA (EMD Millipore MR-121-D) with […] RS-1 (Sigma) dissolved in DMSO or DMSO (Sigma, 1:1000) for 24 hours, washed, and cultured in EmbryoMax FHM HEPES Buffered Medium (Sigma) until collection for genotyping.
Female mice (4-5 weeks old, C57BL/6N) were superovulated by IP injection of PMS (5 IU/mouse, three days prior to microinjection) and hCG (5 IU/mouse, 47 hours after PMS injection) and then paired with males. […]

Chd2 locus [2] = experiment: Mixed ssODN injection (two donors) to test the homozygous KI mechanism; format: cell-based, mouse; conditions: equimolar mixture of two ssODNs

B1: RAD51: recombinant human strand exchange protein RAD51 (Creative Biomart RAD51-134H), transcript variant 4 (protein, UniProt Q06609 2-339, looked up)
DNA repair protein RAD51 …: AMQMQLEANADTSVEEESFGPQPISRLEQCGINANDVKKLEEAGFHTVEAVAYAPKKELINIKGISEAKADKILAEAAKLVPMGFTTATEFHQRRSEIIQITTGSKELDKLLQGGIETGSITEMFGEFRTGKTQICHTLAVTCQLPIDRGGGEGKAMYIDTEGTFRPERLLAVAERYGLSGSDVLDNVAYARAFNTDHQTQLLYQASAMMVESRYALLIVDSATALYRTDYSGRGELSARQMHLARFLRMLLRLADEFGVAVVITNQVVAQVDGAAMFAADPKKPIGGNIIAHASTTRLYLRKGRGETRICKIYDSPCLPEAEAMFAINADGVGDAKD
homozygous KI efficiency (Chd2 locus [1]): drastically increases | overall KI efficiency (Chd2 locus [1]): only slightly increased | homozygous KI efficiency (Chd2 locus [2]; with vs without RAD51): significantly increased | compound heterozygosity in embryos with a KI event on both alleles (Chd2 locus [2]; 5/12 in control embryos): not observed in any
